# Measurements published in patent US7314753.
# The chains behind the UniProt entries cited, without tags or fusion partners.
# UniProt P05804: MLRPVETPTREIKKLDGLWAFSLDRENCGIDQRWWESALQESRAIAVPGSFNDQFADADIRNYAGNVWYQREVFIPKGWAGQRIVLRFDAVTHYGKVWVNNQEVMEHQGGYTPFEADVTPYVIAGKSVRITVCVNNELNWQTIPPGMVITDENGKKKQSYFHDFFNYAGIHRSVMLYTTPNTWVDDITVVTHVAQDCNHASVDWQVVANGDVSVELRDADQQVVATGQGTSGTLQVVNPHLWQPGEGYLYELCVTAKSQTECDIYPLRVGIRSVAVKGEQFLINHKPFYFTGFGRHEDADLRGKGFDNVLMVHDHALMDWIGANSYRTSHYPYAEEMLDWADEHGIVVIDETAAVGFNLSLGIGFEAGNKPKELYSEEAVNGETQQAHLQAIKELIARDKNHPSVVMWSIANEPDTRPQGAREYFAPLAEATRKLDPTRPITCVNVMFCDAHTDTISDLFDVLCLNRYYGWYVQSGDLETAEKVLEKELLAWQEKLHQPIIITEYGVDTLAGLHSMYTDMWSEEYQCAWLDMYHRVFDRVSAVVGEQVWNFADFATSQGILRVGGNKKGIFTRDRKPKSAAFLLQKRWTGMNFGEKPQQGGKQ
# No constants are given. Whether binding was seen depends on the method and setting. Binding seen in cells or lysates may run through a third protein. Some results given as binding are weak or reduced against the parent protein; the word gives no strength. Where a sequence is shown, tags or fusion partners need not be part of it.
# B1: Fab BW 431/26-E. coli β-glucuronidase fusion protein (protein)
# heavy: MEVQLQESGPGLVRPSQTLSLTCTVSGFTISSGYSWHWVRQPPGRGLEWIGYIQYSGITNYNPSLKSRVTMLVDTSKNQFSLRLSSVTAADTAVYYCAREDYDYHWYFDVWGQGSLVTVTVSSASTKGPSVFPLAPCSRSTSGGTAALGCLVKDYFPEPVTVSWNSGALTSGVHTFPAVLQSSGLYSLSSVVTVPSSSLGTQTYTCNVNHKPSNTKVDKRVELGSGSGSMVRPVETPTREIKKLDGLWAFSLDRENCGIDQRWWESALQESRAIAVPGSFNDQFADADIRNYAGNVWYQREVFIPKGWAGQRIVLRFDAVTHYGKVWVNNQEVMEHQGGYTPFEADVTPYVIAGKSVRITVCVNNELNWQTIPPGMVITDENGKKKQSYFHNFFNYAGIHRSVMLYTTPNTWVDDITVVTHVAQDCNHASVDWQVVANGDVSVELRDADQQVVATGQGTSGTLQVVNPHLWQPGEGYLYELCVTAKSQTECDIYPLRVGIRSVAVKGEQFLINHKPFYFTGFGRHEDADLRGKGFDNVLMVHDHALMDWIGANSYRTSHYPYAEEMLDWADEHGIVVIDETAAVGFNLSLGIGFEAGNKPKELYSEEAVNGETQQAHLQAIKELIARDKNHPSVVMWSIANEPDTRPQGAREYFAPLAEATRKLDPTRPITCVNVMFCDAHTDTISDLFDVLCLNRYYGWYVQSGDLETAEKVLEKELLAWQEKLHQPIIITEYGVDTLAGLHSMYTDMWSEEYQCAWLDMYHRVFDRVSAVVGEQVWNFADFATSQGILRVGGNKKGIFTRDRKPKSAAFLLQKRWTGMNFGEKPQQGGKQ
# light: MDIQMTQSPSSLSASVGDRVTITCSTSSSVSYMHWYQQKPGKAPKLLIYSTSNLASGVPSRFSGSGSGTDFTFTISSLQPEDIATYYCHQWSSYPTFGQGTKVEIKRTVAAPSVFIFPPSDEQLKSGTASVVCLLNNFYPREAKVQWKVDNALQSGNSQESVTEQDSKDSTYSLSSTLTLSKADYEKHKVYACEVTHQGLSSPVTKSFNRGEC
# Target: endogenous E. coli β-glucuronidase (E. coli) (UniProt P05804)
# Test: co-purification on anti-idiotype column, SDS-PAGE
binder,measurement,value
B1,binding,binds
